This is one part of the list. Shown are side measurements of this screen, not its main read-out; they come without a call. Compounds called inactive in the main read-out are mostly missing here. The note in brackets gives the kind of curve behind each potency; many fits are weak.
Assay: qHTS Assay for Modulators of Lamin A Splicing
Settings: HeLa LMNA splicing GFP/RFP minigene ratio, 48 h
In short: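 S3 HeLa cells stably expressing lamin A-EGFP splicing minigene plus DsRed2, 600 cells/well, 48 h compound exposure at 37C. Laser-scanning cytometry; analysed as GFP (500-530 nm)/RFP (575-640 nm) total intensity ratio; 0.5% DMSO vehicle.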

[1] = measured here: RFP viability control channel
[2] = measured here: GFP splicing reporter channel

SMILES	AC50 [1]	AC50 [2]
Cn1c(NC(=O)c2ccccc2NC(=O)C(C)(C)C)nc2ccccc21	20 µM [rising, partial curve, poor fit]	
COc1ccc(NC(=O)c2ccc(Cl)c(S(=O)(=O)N3CCc4ccccc4C3)c2)cn1		3.98 µM [rising, single point]
COc1ccc2[nH]cc(C(O)CN3CCN(c4ccccc4)CC3)c2c1 (stereo not given)	22.4 µM [rising, single point]	
COc1ccccc1C(=O)Nc1c(C)n(C)n(-c2ccccc2)c1=O	5.62 µM [rising, single point]	5.62 µM [rising, single point]
Cc1cc2c(cc(C(=O)OCC(=O)NCc3ccco3)n2C)s1	17.8 µM [falling, single point]	15.8 µM [falling, single point]
CC(C)(C)C(=O)Nc1nc(-c2ccc3c(c2)OCO3)cs1	31.6 µM [rising, single point]	
O=C(CN1C(=O)CCSc2ccccc21)Nc1cccc(F)c1	14.1 µM [rising, single point]	
CN1CCC(N(C)C(=S)NCCc2ccccc2)CC1	0.794 µM [falling, partial curve, poor fit]	0.0141 µM [rising, full curve, poor fit]
Cc1ccc(-c2csc3ncnc(N4CCc5ccccc5C4)c23)cc1	5.62 µM [rising, partial curve, poor fit]	
COc1cnc(-c2ccccn2)[nH]c1=O	0.794 µM [rising, full curve]	3.16 µM [rising, full curve, poor fit]
FC(F)(F)c1ccccc1-c1cc(NCc2ccccc2)ncn1		5.01 µM [falling, partial curve]
N#Cc1cc([N+](=O)[O-])ccc1Oc1cccc(/C=N/NC(=O)c2cccc(Cl)c2)c1	15.8 µM [rising, single point]	
O=C(c1ccco1)N1N=C(c2ccc(Br)cc2)CC1(O)C(F)(F)F (stereo not given)		5.62 µM [falling, partial curve, poor fit]
Cc1ccc(CN2CCN(Cc3c(C)nn(C(C)C)c3C)CC2CCO)o1 (stereo not given)		22.4 µM [falling, single point]
CCOC(=O)C1CCN(c2ncnc3c2oc2ccc(Cl)cc23)CC1		11.2 µM [rising, partial curve, poor fit]
O=S1(=O)C=C(Sc2nnc(-c3ccccc3)o2)c2ccccc21	5.62 µM [rising, single point]	
O=C(NCC1CCCO1)/C(=C\c1cccc([N+](=O)[O-])c1)NC(=O)c1ccccc1 (stereo not given)	0.0316 µM [rising, full curve, poor fit]	0.794 µM [rising, partial curve, poor fit]
CC(=O)Cc1nsc(NC(=O)c2ccc(COc3ccc(C)cc3)o2)n1	35.5 µM [rising, single point]	
CC(C)CCNc1nc(N)c([N+](=O)[O-])c(NCC2CCCO2)n1 (stereo not given)	15.8 µM [rising, single point]	
C/C(=N\OCC(=O)Nc1ccccc1Br)c1cccs1	0.00891 µM [rising, full curve, poor fit]	

SMILES	AC50 [1]	AC50 [2]
Cc1ccc(OCCNS(=O)(=O)c2ccc(N3CCCC3=O)cc2)cc1	12.6 µM [rising, partial curve]	
O=C(NCCNCc1ccccn1)c1ccco1	3.16 µM [falling, full curve, poor fit]	
CC(NC(=O)c1ccccc1O)c1ccccc1 (stereo not given)	14.1 µM [rising, single point]	
C=CCNC(=S)NCC1COc2ccccc2O1 (stereo not given)		17.8 µM [rising, single point]
COc1ccc(-c2nn(-c3cccc(F)c3)c3c2cnc2cc(OC)c(OC)cc23)cc1		5.62 µM [falling, single point]
Nc1ccc(S(=O)(=O)Nc2ccnn2-c2ccccc2)cc1	7.94 µM [falling, single point]	0.2 µM [falling, single point]
Cc1[nH]n2c(=O)cc(C(C)(C)C)nc2c1-c1ccccc1	1 µM [rising, full curve]	
COc1ccc(C(=O)N/N=C/c2ccc(OC)c(CSc3ccccn3)c2)cc1	15.8 µM [rising, single point]	
COC(=O)C1CCN(S(=O)(=O)c2cc3c4c(c2)CC(=O)N4CCC3)CC1	6.31 µM [falling, partial curve, poor fit]	
NS(=O)(=O)c1ccc(NC(=O)CSc2nc3ccccc3n2-c2ccccc2)cc1	20 µM [rising, partial curve, poor fit]	
COC(=O)c1ccc(-c2ccco2)n1Cc1nc(-c2ccc(OC)c(OC)c2)oc1C	22.4 µM [rising, single point]	
CC(C)(C)N(Cc1ccccc1)C(=O)CSc1nnc(CNc2ccc(F)cc2)o1	15.8 µM [rising, single point]	
O=S(=O)(c1ccc(N2CCCC2)cc1)C(F)(F)F	35.5 µM [rising, single point]	
Cc1ccc(CN2C(=O)c3ccccc3Sc3ccc(C(=O)OCc4ccco4)cc32)cc1	0.447 µM [rising, full curve]	
Cc1nc2c(ccc3nc(NC(=O)Cc4cccc5ccccc45)sc32)s1	25.1 µM [rising, partial curve]	20 µM [rising, single point]
Cc1cc(C(=O)Nc2c(C)nc3ccccn3c2=O)ccc1[N+](=O)[O-]	0.562 µM [falling, partial curve, poor fit]	
O=C(OC1Cc2c(O)cc(O)cc2OC1c1cc(O)c(O)c(O)c1-c1c(C2Oc3cc(O)cc(O)c3CC2O)cc(O)c(O)c1O)c1cc(O)c(O)c(O)c1 (stereo not given)	14.1 µM [rising, single point]	
COc1ccccc1NC(=O)Cn1nnc(-c2ccccc2NC(=O)c2ccco2)n1	5.62 µM [rising, single point]	
Cc1ccc(SC(CC(=O)c2ccc(C)cc2)C(=O)O)cc1 (stereo not given)		15.8 µM [falling, single point]
COc1ccc(NC(=O)c2cncc(Br)c2)cc1S(=O)(=O)N1CCCCC1	35.5 µM [rising, single point]	

SMILES	AC50 [1]	AC50 [2]
CC(=O)c1c(C)n(-c2ccc(N(C)C)cc2)c2ccc(OCC(N)=O)cc12	11.2 µM [rising, partial curve]	22.4 µM [rising, single point]
COC(=O)CSc1ccc2nnc(-c3ccc(OC)c(OC)c3)n2n1	15.8 µM [rising, partial curve, poor fit]	
O=C(N/N=C/c1cccs1)C1CC(=O)N(c2ccccc2)C1 (stereo not given)	35.5 µM [falling, single point]	
Cc1sc2ncnc(NCc3ccco3)c2c1C		5.01 µM [rising, partial curve, poor fit]
Cc1nnc2sc(-c3ccc(-c4ccc(Cl)c(C(F)(F)F)c4)o3)nn12	0.0631 µM [rising, full curve, poor fit]	
Cn1c(SCC(=O)N2CCc3ccccc32)nc2cccnc21	22.4 µM [rising, single point]	14.1 µM [rising, single point]
Nc1ncnc2c1ncn2[C@@H]1O[C@H](COP(=O)(O)O)[C@@H](O)[C@@H]1O	0.00398 µM [falling, full curve, poor fit]	0.00355 µM [falling, full curve]
Fc1ccccc1/C=C1\CCCC2=C1NC(=S)NC2c1ccccc1F (stereo not given)		20 µM [falling, single point]
Cc1ccccc1CSCC(=O)NCc1ccco1		6.31 µM [falling, single point]
N#Cc1cccc(-c2nccc(NCc3cccs3)n2)c1	11.2 µM [falling, partial curve, poor fit]	
COc1ccc(C)cc1-n1cnc2cc(C(=O)NC3CCCC3)ccc21	0.316 µM [falling, full curve, poor fit]	7.94 µM [falling, partial curve]
Clc1cccc(-c2nn3c(Cn4cnc5ccccc54)nnc3s2)c1	22.4 µM [rising, single point]	28.2 µM [rising, single point]
CCN(CC)c1nc(OCCNC(=O)Nc2ccccc2)nc(N(CC)CC)n1	20 µM [rising, single point]	
O=C(Cn1cc2c(n1)CCCC2)NCc1cccnc1	0.251 µM [falling, full curve, poor fit]	0.2 µM [falling, full curve]
CCCCn1cnc2cc(NCc3ccncc3)ccc21	20 µM [rising, single point]	
C=CCNC(=S)Nc1nc2c(cc1C(=O)OCC)CCCC2	11.2 µM [rising, partial curve]	7.94 µM [rising, partial curve]
O=C(CCCn1c(=S)[nH]c2ccc(Br)cc2c1=O)N1CCN(c2ccccn2)CC1	20 µM [falling, single point]	12.6 µM [falling, single point]
CCOc1ccccc1C(=O)NC1CC2CCCC(C1)N2Cc1nnnn1Cc1ccco1 (stereo not given)	4.47 µM [rising, partial curve]	
NC(=S)N/N=C/c1ccc(-c2cc(Cl)c(Cl)cc2Cl)o1	11.2 µM [falling, partial curve, poor fit]	12.6 µM [falling, partial curve, poor fit]

Among those listed so far, 16 contain a halogen:
SMILES	AC50 [1]	AC50 [2]
COc1ccc(NC(=O)c2ccc(Cl)c(S(=O)(=O)N3CCc4ccccc4C3)c2)cn1		3.98 µM [rising, single point]
O=C(CN1C(=O)CCSc2ccccc21)Nc1cccc(F)c1	14.1 µM [rising, single point]	
FC(F)(F)c1ccccc1-c1cc(NCc2ccccc2)ncn1		5.01 µM [falling, partial curve]
N#Cc1cc([N+](=O)[O-])ccc1Oc1cccc(/C=N/NC(=O)c2cccc(Cl)c2)c1	15.8 µM [rising, single point]	
O=C(c1ccco1)N1N=C(c2ccc(Br)cc2)CC1(O)C(F)(F)F (stereo not given)		5.62 µM [falling, partial curve, poor fit]
CCOC(=O)C1CCN(c2ncnc3c2oc2ccc(Cl)cc23)CC1		11.2 µM [rising, partial curve, poor fit]
C/C(=N\OCC(=O)Nc1ccccc1Br)c1cccs1	0.00891 µM [rising, full curve, poor fit]	
COc1ccc(-c2nn(-c3cccc(F)c3)c3c2cnc2cc(OC)c(OC)cc23)cc1		5.62 µM [falling, single point]
CC(C)(C)N(Cc1ccccc1)C(=O)CSc1nnc(CNc2ccc(F)cc2)o1	15.8 µM [rising, single point]	
O=S(=O)(c1ccc(N2CCCC2)cc1)C(F)(F)F	35.5 µM [rising, single point]	
COc1ccc(NC(=O)c2cncc(Br)c2)cc1S(=O)(=O)N1CCCCC1	35.5 µM [rising, single point]	
Cc1nnc2sc(-c3ccc(-c4ccc(Cl)c(C(F)(F)F)c4)o3)nn12	0.0631 µM [rising, full curve, poor fit]	
Fc1ccccc1/C=C1\CCCC2=C1NC(=S)NC2c1ccccc1F (stereo not given)		20 µM [falling, single point]
Clc1cccc(-c2nn3c(Cn4cnc5ccccc54)nnc3s2)c1	22.4 µM [rising, single point]	28.2 µM [rising, single point]
O=C(CCCn1c(=S)[nH]c2ccc(Br)cc2c1=O)N1CCN(c2ccccn2)CC1	20 µM [falling, single point]	12.6 µM [falling, single point]
NC(=S)N/N=C/c1ccc(-c2cc(Cl)c(Cl)cc2Cl)o1	11.2 µM [falling, partial curve, poor fit]	12.6 µM [falling, partial curve, poor fit]
